Laboratory results from patent publication EP1373298B1, “A COMPOSITION CONTAINING NOVEL COMPOUND CORNICULATONIN HAVING ANTIFUNGI PROPERTIES AND A PROCESS FOR PREPARING THE SAME” (COUNCIL OF SCIENTIFIC AND INDUSTRIAL RESEARCH, priority 2001, dated 2002).
At least one compound was matched to its structure with a doubt left.

Columns and labels:
Test in all cases: Minimum inhibitory concentration (MIC), disk diffusion method
Format in all cases: cell-based
Conditions in all cases: disks of 50 to 3.12 µg, 42-120 hrs at room temperature
[1] = test system: Trichophyton mentagrophytes
Source text: (§1) Agar: Czapek Malt Agar (Himedia laboratories Ltd.) was used for culturing Microsporum gypseum, Trichophyton mentagrophytes T. tonsurans, T. violaceum, Aspergillus fresenii and A. niger. Mycological Agar (Himedia Laboratories Ltd) was used for Cryptococcus neoformans and Candida sp.
(§2) Pathogenic fungal strains of yeast and filamentous fungi identified and gifted by Dr. Savio from Goa Medical College, Bambolim, were used for the test. Strains of Aspergillus were isolated from the infected wheat bread with sterile needle; fungal material was surface sterilized using 0.5 % sodium hypochlorite for 2-3 minutes, and then washed with small brush in sterile distilled water. Washed fungal material was transferred using needle into the sterile culture media and subcultured for purification by following standard methods (Collins and Taylor, 1967). Taxonomic identification was done by using various standard keys (Ainswort et al., 1973; Onion et al., 1981) and identification confirmed by Alka Pandey of Agarkar Research Institute, Pune.
(§3) Yeast strains (Candida sp. and Cryptococcus neoformans) were maintained by single colony transfer on mycological agar (Himedia Laboratories Ltd) at the refrigeration temperature (3-5°C). Filamentous fungi were maintained on Czapek Malt agar slants at refrigeration temperature (3-5°C), until needed for the assay.
(§4) Innocula were adjusted to 100 µl of Cryptococcus neoformans, Candida sp., Microsporum gypseum, Trichophyton tonsurans, T. violaceum and Trichophyton mentagrophytes and spread on the appropriate plates, excess moisture was allowed to absorb for 10 minutes before applying disks. Immediately prior to the assay, the testing compound of formula 1, object of the present invention, the reference compounds amphotericin B and nystatin, potency approx:750µ/mg and 4800USPunit/mg respectively, were reconstituted in triplicate in dimethylsulfoxide. […] From the stock solution 10 µl were spread on the paper disk so as to obtain final concentration of 50 µg disc^-1, 25µg disc^-1, 12.5 µg disc^-1, 6.25 µg disc^-1 and 3.12 µg disk^-1. Disks were dried at reduced pressure in the dessicator, at 28-29°C and applied to inoculated plates.
(§5) In testing, the compound of formula 1 was reconstituted in dimethylsulfoxide (DMSO) immediately prior to all assays. Dimethylsulfoxide (DMSO) alone had no detectable inhibitory effect on any of the tested microbes. Compound of formula 1 was tested against a diverse collection of yeast and filamentous fungi, some of which are resistant to the reference compound nystatin. Filamentous fungi were nystatin resistant.

Aspergillus niger = test system: Aspergillus niger
Source text: as §1, §2, §3, §4, §5

T. violaceum = test system: T. violaceum
Source text: as §1, §2, §3, §4, §5

Aspergillus fresenii = test system: Aspergillus fresenii
Source text: as §1, §2, §3, §4, §5

Microsporum gypseum = test system: Microsporum gypseum
Source text: as §1, §2, §3, §4, §5

T. tonsurans = test system: T. tonsurans
Source text: as §1, §2, §3, §4, §5

Measured: MIC

C[C@@H]1[C@H](O)[C@@H](C)/C=C/C=C/CC/C=C/C=C/C=C/C=C/C(O[C@H]2O[C@H](C)[C@@H](O)[C@H](N)[C@@H]2O)CC2O[C@](O)(CC(O)C(O)CCC(O)CC(O)CC(O)CC(=O)O[C@H]1C)CC(O)C2C(=O)O (stereo partly drawn) [Nystatin]
-: all assays above
